PubChem BioAssay AID652243 | Drosophila RNAi Screening Center – 2013

- Screen: 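Knock-downs that decrease or increase androgen receptor reporter signal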 (primary screen)
- Cell system: Drosophila S2R+ cells
- Knock-down reagent: long dsRNA against Drosophila genes
- Duration: 72 h (48 h, then 24 h hormone)
- Challenge: synthetic androgen R1881 at 10 nM for 24 h
- Detection: 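Per-well raw luminescence of the androgen-driven firefly reporter and of the Renilla control, two replicates each, without normalisation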
- Direction: firefly reporter light: higher = more light from androgen-responsive reporter; Renilla control light: higher = more constitutive control signal (cell number, transfection)
- Hit rule: 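Hit when the log firefly-to-Renilla ratio dropped or increased by a fixed fold versus the mean of GFP or LacZ controls across duplicate plates; lowering cut given as 1.5 and as 3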
- Meaning of the calls: active = hit: reporter lowered or raised; inactive = no hit
In all, the deposit lists about 24,000 reagents; shown is an unselected part of those that have a named target and a result. Of all reagents, 246 (1%) were called active. 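Plates not normalised; calls are printed but the firefly/Renilla ratio behind them is not deposited; fold cut for lowering reported inconsistently.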 Raw values are not corrected between plates. A plus sign joins genes that one reagent is predicted to hit. Not stated in the record: the amount of reagent.

The opening 2 entries, ahead of the listing:
| Target gene | dsRNA | firefly reporter light, replicate 1 | firefly reporter light, replicate 2 | Renilla control light, replicate 1 | Renilla control light, replicate 2 | Call |
| --- | --- | --- | --- | --- | --- | --- |
| CG16956 | DRSC02544 | 2.61e5 | 2.79e5 | 1.33e6 | 1.60e6 | inactive |
| mst (misato) | DRSC20582 | 1.03e5 | 1.65e5 | 4.43e5 | 3.77e5 | inactive |

Main list, from the start:
| Target gene | dsRNA | firefly reporter light, replicate 1 | firefly reporter light, replicate 2 | Renilla control light, replicate 1 | Renilla control light, replicate 2 | Call |
| --- | --- | --- | --- | --- | --- | --- |
| CG16956 | DRSC02544 | 2.61e5 | 2.79e5 | 1.33e6 | 1.60e6 | inactive |
| mst (misato) | DRSC20582 | 1.03e5 | 1.65e5 | 4.43e5 | 3.77e5 | inactive |
| CG4960 | DRSC15684 | 2.03e5 | 1.68e5 | 1.99e6 | 1.87e6 | inactive |
| CG4960 | DRSC27774 | 5.87e5 | 5.73e5 | 5.59e5 | 6.43e5 | inactive |
| CG34213 | DRSC38709 | 9.47e5 | 9.32e5 | 1.80e6 | 2.22e6 | inactive |
| Tom20 (Translocase of outer membrane 20) | DRSC10899 | 55480 | 93289 | 9.09e5 | 6.30e5 | inactive |
| asRNA:CR43477 + CG12256 | DRSC14484 | 1.74e5 | 1.26e5 | 2.24e6 | 1.68e6 | inactive |
| asRNA:CR43477 + CG12256 | DRSC29176 | 2.38e5 | 4.27e5 | 1.03e6 | 9.81e5 | inactive |
| CG11231 (retired record) | DRSC17207 | 2.70e5 | 2.52e5 | 3.07e6 | 2.14e6 | inactive |
| Plekhm1 (Pleckstrin homology and RUN domain containing M1) | DRSC04527 | 1.60e5 | 1.95e5 | 1.32e6 | 1.08e6 | inactive |
| CG30172 | DRSC21519 | 6.50e5 | 5.58e5 | 3.13e6 | 2.38e6 | inactive |
| CG30172 | DRSC30069 | 8.88e5 | 5.57e5 | 1.38e6 | 9.06e5 | inactive |
| CG5958 | DRSC02915 | 1.03e5 | 1.14e5 | 1.03e6 | 1.06e6 | inactive |
| CG32486 | DRSC08413 | 2.38e5 | 1.09e5 | 5.71e5 | 4.98e5 | inactive |
| CG32486 | DRSC08488 | 1.75e5 | 2.22e5 | 1.93e6 | 2.71e6 | inactive |
| rho-6 (rhomboid-6) | DRSC02588 | 2.38e5 | 3.01e5 | 1.77e6 | 1.53e6 | inactive |
| rho-6 (rhomboid-6) | DRSC29070 | 6.20e5 | 6.76e5 | 1.46e6 | 1.14e6 | inactive |
| Zip89B (Zinc/iron regulated transporter-related protein 89B) | DRSC16128 | 66186 | 1.09e5 | 1.41e6 | 1.80e6 | inactive |
| Zip89B (Zinc/iron regulated transporter-related protein 89B) | DRSC29691 | 6.34e5 | 5.50e5 | 1.77e6 | 1.64e6 | inactive |
| CG6441 | DRSC02957 | 1.50e5 | 1.80e5 | 1.40e6 | 1.07e6 | inactive |
| Cpr76Bc (Cuticular protein 76Bc) | DRSC11062 | 1.80e5 | 1.45e5 | 2.84e6 | 1.79e6 | inactive |
| Cpr76Bc (Cuticular protein 76Bc) | DRSC27478 | 4.35e5 | 4.81e5 | 3.58e5 | 8.62e5 | inactive |
| Phm (Peptidylglycine-alpha-hydroxylating monooxygenase) | DRSC04639 | 8.08e5 | 7.19e5 | 1.69e6 | 2.20e6 | inactive |
| CR12842 (pseudo) | DRSC06188 | 3.88e5 | 4.41e5 | 1.81e6 | 1.45e6 | inactive |
| CR12842 (pseudo) | DRSC24909 | 1.42e6 | 1.22e6 | 9.67e5 | 1.19e6 | inactive |
